{
  "source": "paper doi:10.1101/2025.07.25.666749",
  "experiment_in_all_cases": "proximity labelling",
  "key": {"[1]": {"target": "T1, UltraID_ZFP36L1 (UltraID fused to the N-terminus of ZFP36L1) (UniProt Q07352)", "T1 sequence": "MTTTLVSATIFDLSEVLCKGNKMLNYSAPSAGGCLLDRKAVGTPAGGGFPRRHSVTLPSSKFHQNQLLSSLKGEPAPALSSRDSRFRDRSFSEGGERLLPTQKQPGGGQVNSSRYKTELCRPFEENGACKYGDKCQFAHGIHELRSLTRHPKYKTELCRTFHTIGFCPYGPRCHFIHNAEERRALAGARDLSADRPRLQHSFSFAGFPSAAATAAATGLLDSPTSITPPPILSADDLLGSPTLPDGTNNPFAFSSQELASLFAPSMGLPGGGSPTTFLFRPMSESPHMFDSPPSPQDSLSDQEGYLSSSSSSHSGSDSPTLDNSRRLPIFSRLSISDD"}, "[2]": {"target": "T1, UltraID_ZFP36L1 (UltraID fused to the N-terminus of ZFP36L1)", "remark": "listed apart in the source"}, "[3]": {"target": "T1, UltraID_ZFP36L1 (UltraID fused to the N-terminus of ZFP36L1)", "remark": "listed apart in the source"}},
  "note": "Read-outs that look alike come from different tables or passages of the source. These are yes or no findings as the source states them, for the method shown. In cells and extracts the contact can be indirect. These calls come from enrichment with a bait or labelling near it, and not all partners need be listed. Tags and fused reporters may be left off the sequences shown.",
  "data": [
    {"molecule": "PUM1 (from UniProt Q14671 1-1186)", "values": [
      {"measurement": "binding", "setting": "[1]", "result": "binds"},
      {"measurement": "binding", "setting": "[2]", "result": "binds"}
    ]},
    {"molecule": "TNRC6A (from UniProt Q8NDV7 1-1962)", "values": [
      {"measurement": "binding", "setting": "[2]", "result": "binds"}
    ]},
    {"molecule": "TNRC6B (from UniProt Q9UPQ9 1-1833)", "values": [
      {"measurement": "binding", "setting": "[2]", "result": "binds"}
    ]},
    {"molecule": "TNRC6C (from UniProt Q9HCJ0 1-1936)", "values": [
      {"measurement": "binding", "setting": "[1]", "result": "binds"},
      {"measurement": "binding", "setting": "[2]", "result": "binds"}
    ]},
    {"molecule": "UBAP2L (from UniProt Q14157 1-1087)", "values": [
      {"measurement": "binding", "setting": "[1]", "result": "binds"},
      {"measurement": "binding", "setting": "[2]", "result": "binds"}
    ]},
    {"molecule": "YBX1 (from UniProt P67809 1-324)", "values": [
      {"measurement": "binding", "setting": "[1]", "result": "binds"},
      {"measurement": "binding", "setting": "[2]", "result": "binds"}
    ]},
    {"molecule": "CSTF2 (protein, UniProt P33240 1-577) MAGLTVRDPAVDRSLRSVFVGNIPYEATEEQLKDIFSEVGPVVSFRLVYDRETGKPKGYGFCEYQDQETALSAMRNLNGREFSGRALRVDNAASEKNKEELKSLGTGAPVIESPYGETISPEDAPESISKAVASLPPEQMFELMKQMKLCVQNSPQEARNMLLQNPQLAYALLQAQVVMRIVDPEIALKILHRQTNIPTLIAGNPQPVHGAGPGSGSNVSMNQQNPQAPQAQSLGGMHVNGAPPLMQASMQGGVPAPGQMPAAVTGPGPGSLAPGGGMQAQVGMPGSGPVSMERGQVPMQDPRAAMQRGSLPANVPTPRGLLGDAPNDPRGGTLLSVTGEVEPRGYLGPPHQGPPMHHVPGHESRGPPPHELRGGPLPEPRPLMAEPRGPMLDQRGPPLDGRGGRDPRGIDARGMEARAMEARGLDARGLEARAMEARAMEARAMEARAMEARAMEVRGMEARGMDTRGPVPGPRGPIPSGMQGPSPINMGAVVPQGSRQVPVMQGTGMQGASIQGGSQPGGFSPGQNQVTPQDHEKAALIMQVLQLTADQIAMLPPEQRQSILILKEQIQKSTGAP", "values": [
      {"measurement": "binding", "setting": "[3]", "result": "binds"},
      {"measurement": "binding", "setting": "[2]", "result": "binds"}
    ]},
    {"molecule": "SIRT2 (protein, UniProt Q8IXJ6 1-389) MAEPDPSHPLETQAGKVQEAQDSDSDSEGGAAGGEADMDFLRNLFSQTLSLGSQKERLLDELTLEGVARYMQSERCRRVICLVGAGISTSAGIPDFRSPSTGLYDNLEKYHLPYPEAIFEISYFKKHPEPFFALAKELYPGQFKPTICHYFMRLLKDKGLLLRCYTQNIDTLERIAGLEQEDLVEAHGTFYTSHCVSASCRHEYPLSWMKEKIFSEVTPKCEDCQSLVKPDIVFFGESLPARFFSCMQSDFLKVDLLLVMGTSLQVQPFASLISKAPLSTPRLLINKEKAGQSDPFLGMIMGLGGGMDFDSKKAYRDVAWLGECDQGCLALAELLGWKKELEDLVRREHASIDAQSGAGVPNPSTSASPKKSPPPAKDEARTTEREKPQ", "values": [
      {"measurement": "binding", "setting": "[3]", "result": "binds"}
    ]}
  ]
}
